Reference: PubChem BioAssay AID330 (DTP/NCI, 2004)
The list shows only some results of the screen, not a fair sample: it is rich in T/C values a quarter to a half above the control, in often repeated tests (any T/C) and in doses without a T/C. Further doses and runs are listed elsewhere. T/C: endpoint of the treated group in % of that of the vehicle group. Some entries give survivors of the animals treated and no T/C: the source files T/C as zero there, which appears to mark a toxic dose or a test without result, not a measured value. Some doses without a T/C left all or most animals alive at the check, yet need not have been tolerated: the source hardly ever lists a survival T/C far under the control, and the zero likely stands for such cases as well. Counts of survivors are from the toxicity check (mostly the fifth day) where no day follows; animals may have died later. Schedule codes are those of the source, read here as Q, the interval in days (D) or hours (H), X, the number of doses. Some entries hold several experiments; the results are listed from low to high. For survival time, this PubChem deposit counts one and a half times the control or more as active, and values a quarter to a half above the control carry no call in these data; other NCI protocols may use other cut-offs.

System: P388 leukemia ip, CD2F1 mice, survival T/C
Assay: NCI In Vivo Anticancer Drug Screen. Data for tumor model P388 Leukemia (intraperitoneal) in CD2F1 (CDF1) mice
Conditions: T/C endpoint: median survival time, higher T/C = longer survival
[1] = dose: 100.0 mg/kg/injection, schedule: Q01DX005 (ip), vehicle: Klucel (hydroxypropylcellulose) (HPC)
[2] = dose: 200.0 mg/kg/injection, schedule: Q01DX005 (ip), vehicle: Klucel (hydroxypropylcellulose) (HPC)
[3] = dose: 240.0 mg/kg/injection, schedule: Q01DX005 (ip), vehicle: saline with Tween-80
[4] = dose: 200.0 mg/kg/injection, schedule: Q01DX005 (ip), vehicle: saline
[5] = dose: 200.0 mg/kg/injection, schedule: Q01DX009 (ip), vehicle: saline
[6] = dose: 200.0 mg/kg/injection, schedule: Q01DX005 (ip), vehicle: saline with Tween-80
[7] = dose: 50.0 mg/kg/injection, schedule: Q01DX009 (ip), vehicle: Klucel (hydroxypropylcellulose) (HPC)
[8] = dose: 100.0 mg/kg/injection, schedule: Q01DX009 (ip), vehicle: Klucel (hydroxypropylcellulose) (HPC)
[9] = dose: 200.0 mg/kg/injection, schedule: Q01DX009 (ip), vehicle: Klucel (hydroxypropylcellulose) (HPC)
[10] = dose: 200.0 mg/kg/injection, schedule: Q01DX009 (ip), vehicle: saline with Tween-80
[11] = dose: 100.0 mg/kg/injection, schedule: Q01DX009 (ip), vehicle: saline

For `CC(C)CC1[NH][Sn]2([NH]C(CC(C)C)C(=O)[O]2)[O]C1=O` (centres undefined), the survivor count (dose: 50.0 mg/kg/injection, schedule: Q01DX005 (ip), vehicle: Klucel (hydroxypropylcellulose) (HPC)) was 3 of 6, the survivor count [1] was 2 of 6 and the survivor count [2] was 0 of 6.
For `CC(Cl)(C=O)c1ccccc1` (centres undefined), the survivor count [3] was 0 of 6.
For `CC1(C)N=C(N)N=C(N)N1c1ccc(OCCCOc2ccc(S(=O)(=O)F)cc2)c(Cl)c1`, the T/C (dose: 50.0 mg/kg/injection, schedule: Q04DX003 (ip), vehicle: saline) was 130 % of control.
In the case of `CCN(CC)CC.[CH-]1CCCCC1.[CH-]1CCCCC1.[CH3-].[Cl-].[Cl-].[Sn+4]`, the survivor count (dose: 25.0 mg/kg/injection, schedule: Q01DX005 (ip), vehicle: saline) is reported as 3 of 6, the survivor count (dose: 50.0 mg/kg/injection, schedule: Q01DX005 (ip), vehicle: saline) is reported as 0 of 6 and the survivor count (dose: 100.0 mg/kg/injection, schedule: Q01DX005 (ip), vehicle: saline) is reported as 0 of 6. For the same molecule, the survivor count [4] was 0 of 6.
In the case of `C=C1C(=O)OC2C(OC=O)CCCC12` (centres undefined), the survivor count (dose: 240.0 mg/kg/injection, schedule: Q01DX005 (ip), vehicle: Klucel (hydroxypropylcellulose) (HPC)) is reported as 0 of 6.
For `Oc1cc2c(cc1O)[C@H]1c3ccc(O)c(O)c3OC[C@@]1(O)C2`, the T/C (dose: 50.0 mg/kg/injection, schedule: Q01DX009 (ip), vehicle: saline) was 127 % of control.
For `Cc1ccc(C[N+](C)(C)CCCCCOc2c(Br)cc(Br)cc2Br)o1`, the survivor count (dose: 25.0 mg/kg/injection, schedule: Q04DX003 (ip), vehicle: Klucel (hydroxypropylcellulose) (HPC)) was 3 of 6, the survivor count (dose: 50.0 mg/kg/injection, schedule: Q04DX003 (ip), vehicle: Klucel (hydroxypropylcellulose) (HPC)) was 3 of 6 and the survivor count (dose: 100.0 mg/kg/injection, schedule: Q04DX003 (ip), vehicle: Klucel (hydroxypropylcellulose) (HPC)) was 0 of 6. The survivor count (dose: 200.0 mg/kg/injection, schedule: Q04DX003 (ip), vehicle: Klucel (hydroxypropylcellulose) (HPC)) was 0 of 6 and the survivor count (dose: 400.0 mg/kg/injection, schedule: Q04DX003 (ip), vehicle: Klucel (hydroxypropylcellulose) (HPC)) was 0 of 6.
`CCCCC1CCCCCCc2[nH]c(/C=C3\N=C(c4ccc[nH]4)C=C3OC)cc21` (centres undefined) was tested, and the T/C (dose: 0.5 mg/kg/injection, schedule: Q01DX009 (ip), vehicle: saline with Tween-80) was 130 % of control, the T/C (dose: 0.7 mg/kg/injection, schedule: Q01DX009 (ip), vehicle: saline with Tween-80) was 126 % of control and the T/C (dose: 1.0 mg/kg/injection, schedule: Q01DX009 (ip), vehicle: saline with Tween-80) was 145 % of control. For the same molecule, the survivor count (dose: 1.5 mg/kg/injection, schedule: Q01DX009 (ip), vehicle: saline with Tween-80) was 1 of 6, the T/C (dose: 1.56 mg/kg/injection, schedule: Q01DX009 (ip), vehicle: saline with Tween-80) was 129 % of control and the survivor count (dose: 2.0 mg/kg/injection, schedule: Q01DX009 (ip), vehicle: saline with Tween-80) was 3 of 6 and 4 of 6. The survivor count (dose: 2.3 mg/kg/injection, schedule: Q01DX009 (ip), vehicle: saline with Tween-80) was 4 of 6, the survivor count (dose: 3.13 mg/kg/injection, schedule: Q01DX009 (ip), vehicle: saline with Tween-80) was 6 of 6 and the survivor count (dose: 6.25 mg/kg/injection, schedule: Q01DX009 (ip), vehicle: saline with Tween-80) was 5 of 6. For the same molecule, the survivor count (dose: 12.5 mg/kg/injection, schedule: Q01DX009 (ip), vehicle: saline with Tween-80) was 4 of 6.
For `COc1ccc(CSC(=S)Nc2ccc(Cl)c(C(F)(F)F)c2)cc1`, the T/C [5] was 125 % of control.
For `Cc1ccc(S(=O)(=O)N/N=C/c2ccncc2)cc1`, the T/C (dose: 88.0 mg/kg/injection, schedule: Q01DX009 (ip), vehicle: other) was 128 % of control, the T/C (dose: 133.0 mg/kg/injection, schedule: Q01DX009 (ip), vehicle: other) was 131 % of control and the T/C (dose: 200.0 mg/kg/injection, schedule: Q01DX009 (ip), vehicle: other) was 128 % of control. The T/C (dose: 300.0 mg/kg/injection, schedule: Q01DX009 (ip), vehicle: other) was 131 % of control.
`O=C1CSC(=S)N1c1ccco1` was tested, and the survivor count (dose: 400.0 mg/kg/injection, schedule: Q01DX009 (ip), vehicle: saline with Tween-80) was 3 of 6.
In the case of `O=C(Nc1ccc(N=Nc2ccccc2)cc1)SCCO`, the survivor count [6] is reported as 4 of 6.
In the case of `COC1(OC)CCC(=O)N(Cc2ccccc2)c2cc(C)c(N(Cc3ccccc3)S(=O)(=O)c3ccc(C)cc3)cc2C1C` (centres undefined), the survivor count (dose: 100.0 mg/kg/injection, schedule: Q01DX005 (ip), vehicle: saline with Tween-80) is reported as 6 of 6 and the survivor count [6] is reported as 6 of 6.
With `O=c1n(-c2ccccc2)c(=O)n2n1C1C3C4C5C1C5C2C43` (centres undefined) the survivor count (dose: 25.0 mg/kg/injection, schedule: Q01DX009 (ip), vehicle: Klucel (hydroxypropylcellulose) (HPC)) was 5 of 6.
For `C[C@@H]1C[C@H]2[C@@H]3CCC4=CC(=O)C=C[C@]4(C)[C@@]3(F)[C@@H](O)C[C@]2(C)[C@@]1(O)C(=O)CO`, the survivor count (dose: 100.0 mg/kg/injection, schedule: Q01DX009 (ip), vehicle: saline sonified) was 6 of 6.
`O=S(=O)(SC(S(=O)(=O)c1ccccc1)S(=O)(=O)c1ccccc1)c1ccccc1` was tested, and the T/C [7] was 126 and 132 % of control, the T/C [8] was 130, 131, 136 % of control and the T/C [9] was 125 and 133 % of control. The survivor count (dose: 800.0 mg/kg/injection, schedule: Q01DX009 (ip), vehicle: Klucel (hydroxypropylcellulose) (HPC)) was 6 of 6.
`COc1ccc2ncc(COC(=O)Nc3ccccc3)c(COC(=O)Nc3ccccc3)c2c1` was tested, and the survivor count [1] was 6 of 6 and the survivor count [2] was 6 of 6.
With `Cc1ccc(N(CN2C(=O)CCC2=O)CS(=O)(=O)c2ccc(C)cc2)cc1` the survivor count (dose: 60.0 mg/kg/injection, schedule: Q01DX005 (ip), vehicle: Klucel (hydroxypropylcellulose) (HPC)) was 6 of 6.
For `[Br][Pb]([Br])([c]1ccccc1)[c]1ccccc1`, the T/C (dose: 50.0 mg/kg/injection, schedule: Q01DX009 (ip), vehicle: saline with Tween-80) was 131 % of control and the survivor count [10] was 6 of 6.
For `NCc1ccc(Cc2ccc(CN)cc2)cc1`, the survivor count [10] was 0 of 6.
In the case of `c1ccc(CN2COC3CCCCC32)cc1` (centres undefined), the T/C [4] is reported as 148 % of control.
With `CC(C)NCC(O)COc1ccc(CCOC(=O)CCc2ccc(C(O)(C(F)(F)F)C(F)(F)F)cc2)cc1` (centres undefined) the survivor count [3] was 3 of 6.
With `C=CC1(C)CCOC(=O)C1` (centres undefined) the survivor count [3] was 1 of 6.
In the case of `CC(=O)/C=C(\C)Nc1ccccc1`, the survivor count [11] is reported as 5 of 6.
`C=CCn1c(=S)sc2ccccc21` was tested, and the survivor count [7] was 6 of 6, the survivor count [8] was 6 of 6 and the survivor count [9] was 6 of 6.
In the case of `CCCCCCCCCCCCCCCCCC[n+]1cccc(C2CCCN2C)c1` (centres undefined) (tested in a mixture with another compound), the T/C (dose: 3.12 mg/kg/injection, schedule: Q01DX009 (ip), vehicle: Klucel (hydroxypropylcellulose) (HPC)) is reported as 134 % of control, the T/C (dose: 6.25 mg/kg/injection, schedule: Q01DX009 (ip), vehicle: Klucel (hydroxypropylcellulose) (HPC)) is reported as 138 % of control and the T/C (dose: 12.5 mg/kg/injection, schedule: Q01DX009 (ip), vehicle: Klucel (hydroxypropylcellulose) (HPC)) is reported as 142 % of control.
In the case of `COC[N+](C)(C)c1ccc(/C=C/C=O)cc1`, the survivor count [11] is reported as 4 of 6 and the survivor count [5] is reported as 0 of 6.
